Test results: patent US20040157740A1, “Heterocyclyl phenyl benzyl ethers used as fungicides” (priority 2001, published 2004)
Some of these results come from one statement about several compounds together.

System: Erysiphe graminis f.sp. tritici
Assay: Erysiphe test (wheat)/protective
Assay type: in vivo
Conditions: protective, application rate 250 g/ha, evaluation 7 days after inoculation

Q: `CNC(=O)/C(=N/OC)c1ccccc1COc1ccc(-c2nnn(C)n2)cc1C` [Example 2, N-methyl-2-[4-(2-methyltetrazol-5-yl)-2-methylphenoxy]methylphenylglyoxylamide O-methyl oxime] was tested. Which efficacy did it give?
A: Its efficacy is no less than 98%.
